The target of experiment [1] is HOXA10 (yeast two-hybrid) (human) (UniProt P31260). Briefly: two-hybrid; yeast two-hybrid technique; no details given.
A further experiment has as its target Myc-HOXA10^T362A (human) (UniProt P31260). Briefly: co-IP; 293T cells co-transfected for 48 h; lysis in 50 mM Tris-HCl pH 7.6, 1.0% NP-40, 150 mM NaCl; anti-Myc beads or anti-Flag M2 beads at 4 °C overnight; Western blot with anti-Flag-HRP and anti-Myc-HRP. For orientation: A western blot detects proteins with antibodies after separation by electrophoresis.
The target in experiment [2] is Myc-HOXA10 (Homeobox A10) (human) (UniProt P31260). The description is as above.
The target in experiment [3] is endogenous MEKK4 (human (endogenous in Ishikawa)) (UniProt Q9Y6R4). Briefly: co-IP; anti-MEKK4 endogenous immunoprecipitation from Ishikawa cell lysates, Western blot; mouse IgG as negative control.

The chains behind the UniProt entries cited, without tags or fusion partners. Where a name states a change or a piece, a line headed by the entry shows the natural chain unless it says otherwise.
UniProt P31260: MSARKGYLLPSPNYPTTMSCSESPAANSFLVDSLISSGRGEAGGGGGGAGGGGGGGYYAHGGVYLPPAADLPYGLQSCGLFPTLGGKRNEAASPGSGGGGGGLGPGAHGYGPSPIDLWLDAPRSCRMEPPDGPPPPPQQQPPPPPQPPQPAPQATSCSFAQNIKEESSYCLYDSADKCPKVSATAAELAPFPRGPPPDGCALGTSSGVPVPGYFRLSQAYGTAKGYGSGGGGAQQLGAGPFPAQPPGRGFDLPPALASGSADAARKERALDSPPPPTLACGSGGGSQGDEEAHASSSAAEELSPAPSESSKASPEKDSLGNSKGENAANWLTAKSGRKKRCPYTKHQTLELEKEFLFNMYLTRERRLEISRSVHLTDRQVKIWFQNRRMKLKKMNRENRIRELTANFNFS
UniProt Q9Y6R4: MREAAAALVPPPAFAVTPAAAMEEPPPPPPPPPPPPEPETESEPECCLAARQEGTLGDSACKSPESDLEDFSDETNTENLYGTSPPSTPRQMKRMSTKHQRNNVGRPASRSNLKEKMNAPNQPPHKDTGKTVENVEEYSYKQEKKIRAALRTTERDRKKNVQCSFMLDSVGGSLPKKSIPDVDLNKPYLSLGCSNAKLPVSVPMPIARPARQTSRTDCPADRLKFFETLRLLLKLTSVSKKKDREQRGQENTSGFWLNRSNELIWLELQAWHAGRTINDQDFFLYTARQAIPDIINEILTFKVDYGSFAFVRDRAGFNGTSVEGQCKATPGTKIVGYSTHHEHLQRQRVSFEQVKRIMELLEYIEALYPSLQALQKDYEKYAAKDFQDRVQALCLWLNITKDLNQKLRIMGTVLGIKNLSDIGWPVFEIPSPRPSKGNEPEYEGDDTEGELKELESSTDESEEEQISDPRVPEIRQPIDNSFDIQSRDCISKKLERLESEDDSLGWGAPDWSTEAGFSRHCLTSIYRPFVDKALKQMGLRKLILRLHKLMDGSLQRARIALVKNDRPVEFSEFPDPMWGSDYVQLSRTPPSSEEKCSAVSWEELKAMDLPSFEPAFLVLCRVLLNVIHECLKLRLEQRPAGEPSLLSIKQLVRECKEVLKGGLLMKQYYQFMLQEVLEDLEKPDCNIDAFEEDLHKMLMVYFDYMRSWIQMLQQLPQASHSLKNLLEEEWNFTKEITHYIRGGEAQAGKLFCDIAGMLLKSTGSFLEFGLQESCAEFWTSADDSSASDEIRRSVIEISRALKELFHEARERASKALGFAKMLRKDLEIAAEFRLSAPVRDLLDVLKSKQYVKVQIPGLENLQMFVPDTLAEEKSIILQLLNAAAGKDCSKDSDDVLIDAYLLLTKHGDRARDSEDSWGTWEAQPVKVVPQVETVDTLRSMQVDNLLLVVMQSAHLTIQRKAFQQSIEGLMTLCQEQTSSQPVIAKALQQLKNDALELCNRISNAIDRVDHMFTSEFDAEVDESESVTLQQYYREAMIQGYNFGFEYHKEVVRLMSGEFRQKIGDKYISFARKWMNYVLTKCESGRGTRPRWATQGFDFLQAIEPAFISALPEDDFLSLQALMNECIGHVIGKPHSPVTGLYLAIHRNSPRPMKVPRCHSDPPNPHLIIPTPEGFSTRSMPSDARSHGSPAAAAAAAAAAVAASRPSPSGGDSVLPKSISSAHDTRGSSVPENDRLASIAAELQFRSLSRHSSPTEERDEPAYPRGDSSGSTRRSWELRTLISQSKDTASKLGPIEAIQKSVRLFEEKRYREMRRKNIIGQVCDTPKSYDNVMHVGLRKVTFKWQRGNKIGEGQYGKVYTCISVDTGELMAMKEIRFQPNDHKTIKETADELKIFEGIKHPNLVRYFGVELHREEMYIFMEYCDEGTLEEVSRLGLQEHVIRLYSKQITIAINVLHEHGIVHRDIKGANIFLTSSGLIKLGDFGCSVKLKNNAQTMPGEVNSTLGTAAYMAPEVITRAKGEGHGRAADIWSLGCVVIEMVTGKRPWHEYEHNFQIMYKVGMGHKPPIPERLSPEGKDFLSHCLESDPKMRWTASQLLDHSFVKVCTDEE

The values below come from article PMC9550837.

No constants are given. Whether binding was seen depends on the method and setting. For some of these results: In cells and extracts the contact can be indirect. Some entries that bind do so weakly or less than the wild type.

Take “MEKK4 (yeast two-hybrid) (from UniProt Q9Y6R4 1-1608) (enzyme)”: in experiment [1], the binding result is listed as “binds”. Turning to “MEKK4-Flag (Mitogen-activated protein kinase kinase kinase 4) (from UniProt Q9Y6R4 1-1608) (enzyme)”, the binding result (with Myc-HOXA10^T362A (human); in experiment [2]) was “binds” in each case. With “endogenous HOXA10 (from UniProt P31260 1-410)”, the binding entry in experiment [3] was “binds”.
